Results published in PMC5526789, “Structure of Full-Length SMC and Rearrangements Required for Chromosome Organization” (Molecular Cell, 2017).
No constants are given. Whether binding was seen depends on the method and setting. Some binding calls cover weakened binding; strength is not graded here.

Target: T1, BsSmcHd(EQ)-CC30 (Bacillus subtilis) (UniProt P51834)
T1 sequence: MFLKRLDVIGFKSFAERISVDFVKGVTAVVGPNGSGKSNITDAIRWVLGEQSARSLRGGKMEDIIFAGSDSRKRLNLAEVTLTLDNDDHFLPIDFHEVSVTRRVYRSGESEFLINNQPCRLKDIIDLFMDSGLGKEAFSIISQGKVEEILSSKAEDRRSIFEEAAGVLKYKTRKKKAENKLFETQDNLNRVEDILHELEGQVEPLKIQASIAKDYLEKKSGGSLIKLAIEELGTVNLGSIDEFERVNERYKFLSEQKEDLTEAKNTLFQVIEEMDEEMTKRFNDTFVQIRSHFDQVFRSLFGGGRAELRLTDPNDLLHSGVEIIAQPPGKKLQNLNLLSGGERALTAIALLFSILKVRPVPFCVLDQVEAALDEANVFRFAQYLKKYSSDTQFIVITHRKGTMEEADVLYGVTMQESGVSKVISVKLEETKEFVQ
Assay: crystal structure; BsSmcHd(EQ)-CC30:ATPγS–ScpA^C; complex incubated with 5 mM MgCl2 and 2 mM ATPγS to induce dimerization; 10% PEG3000, 0.1 M imidazole pH 8.0, 0.2 M Li2SO4, hexamine cobalt chloride; both purified

B1: BsScpA^C (domain or fragment, UniProt P35154 167-251)
chain: NRPMETTITRQDIPIEARMNEIVHSLKSRGTRINFMDLFPYEQKEHLVVTFLAVLELMKNQLVLIEQEHNFSDIYITGSESIHGA
- binding: binds
